Test results reported in PubChem BioAssay AID2551 (National Center for Advancing Translational Sciences (NCATS), 2010).
The campaign covered roughly 310,000 compounds. About 17,000 (5.5%) were called active. Inconclusive results, whose numbers are uncertain, are shown with a selection of clear calls. The call rests on the fitted dose curve; in most records, active means well fitted inhibition curve with a large enough effect; inconclusive means small, poorly fitted or top-dose-only effect, or effect the other way; inactive means no such curve, though single readings can be large or run the other way. Where the call is inconclusive, the potency comes from a doubtful curve fit.

The chains behind the UniProt entries cited, without tags or fusion partners. Where a name states a change or a piece, a line headed by the entry shows the natural chain unless it says otherwise.
UniProt P51450: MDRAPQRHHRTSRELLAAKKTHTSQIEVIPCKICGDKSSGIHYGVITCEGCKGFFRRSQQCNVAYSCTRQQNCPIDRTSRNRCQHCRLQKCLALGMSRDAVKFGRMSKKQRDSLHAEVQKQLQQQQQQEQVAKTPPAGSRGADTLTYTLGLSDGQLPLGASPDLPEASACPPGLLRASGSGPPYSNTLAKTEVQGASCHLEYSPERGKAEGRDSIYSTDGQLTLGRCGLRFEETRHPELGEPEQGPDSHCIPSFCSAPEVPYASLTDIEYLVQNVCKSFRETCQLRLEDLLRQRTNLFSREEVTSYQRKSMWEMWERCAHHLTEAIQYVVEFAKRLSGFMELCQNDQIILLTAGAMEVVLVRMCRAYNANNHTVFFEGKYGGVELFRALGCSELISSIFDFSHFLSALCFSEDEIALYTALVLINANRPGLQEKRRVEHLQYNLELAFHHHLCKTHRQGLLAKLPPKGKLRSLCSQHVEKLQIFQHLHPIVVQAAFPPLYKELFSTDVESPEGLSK

biological target: Nuclear receptor ROR-gamma (Mus musculus) (UniProt P51450); assay: qHTS for inhibitors of ROR gamma transcriptional activity; conditions: Drosophila S2 Gal4-RORgamma UAS-luciferase reporter, 20 h; series mostly up to 53.6 µM; further: nearly all actives have a fitted effect of over 60% in size
Procedure, shortened: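 Stably transfected Drosophila Schneider cells are the test system, with ROR gamma fused to Gal4 and luciferase under UAS control; luminescence is read after 20 hr of 700 uM copper sulfate induction at ambient temperature.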
Potency means the concentration at half of the fitted maximal effect.

Row | SMILES | Potency
1 | CCOC(=O)C1CCN(C(=O)C2CCN(c3nn4c(=O)cc(C)nc4s3)CC2)CC1 | inactive
2 | Cc1ccnc(NC(=O)c2cc3cc(F)ccc3s2)c1 | active: 3.16 µM
3 | Cc1c(F)cccc1NS(=O)(=O)c1ccc(OCCNS(C)(=O)=O)cc1 | inconclusive: 14.1 µM [activator, single point]
4 | COc1ccccc1C(=O)Nc1ccc(N2CCN(C(C)=O)CC2)cc1 | inactive
5 | CC(NC(=O)Cc1ccc(F)cc1)C(c1cccs1)N1CCN(C)CC1 (stereo unspecified) | inconclusive: 1.41 µM [inhibitor, partial curve, poor fit]
6 | Cc1ccn2cc(CCNC(=O)CC(C)(C)C)nc2c1 | inconclusive: 0.501 µM [inhibitor, full curve]
7 | CCC(CCC(=O)NNC(=O)Cc1ccc([N+](=O)[O-])cc1)C(=O)O (stereo unspecified) | inconclusive: 35.5 µM [inhibitor, single point]
8 | O=C(CSc1ncnc2scc(-c3ccccc3)c12)N1CCN(Cc2ccc3c(c2)OCO3)CC1 | active: 22.4 µM
9 | O=C(NCc1ccco1)c1cnn2c(C(F)(F)F)cc(-c3cccs3)nc12 | inactive
10 | COc1ccccc1-c1nnc(NC(=O)CSc2nncn2C)s1 | active: 8.91 µM
11 | Cc1sc2nc(CN3CCCC3)nc(Cl)c2c1C | inconclusive: 22.4 µM [inhibitor, single point]
12 | O=C(/C=C/c1cccc([N+](=O)[O-])c1)NC1CC2CCC1C2 (stereo unspecified) | inconclusive: 12.6 µM [activator, partial curve]
13 | O=C(NCc1ccc2c(c1)OCO2)c1cccc(S(=O)(=O)N2CCCCC2)c1 | inconclusive: 4.47 µM [activator, full curve, poor fit]
14 | C[C@](N)(Cc1ccc(O)cc1)C(=O)O | inactive
15 | CCOc1ccccc1N(CC(=O)NCc1ccco1)C(=O)CCC(=O)Nc1nccs1 | inactive
16 | Cc1ccc(SCC(c2ccccc2)N2CCN(CCc3ccccc3)CCC2=O)cc1 (stereo unspecified) | inconclusive: 12.6 µM [activator, single point]
17 | O=C(c1cccc(Br)c1)N1CCN(S(=O)(=O)N2CCCCCC2)CC1 | inactive
18 | CSc1ccccc1C(=O)NCCOc1ccccc1C | inconclusive: 15.8 µM [activator, single point]
19 | COc1ccc(Oc2ccc(N/C=C3/CCCC3=O)cc2)cc1 | inconclusive: 31.6 µM [activator, single point]
20 | Cc1cnc(C(=O)N2CCc3c([nH]c4ccccc34)C2c2ccc(F)cc2)cn1 (stereo unspecified) | inactive
21 | CN(C)Cc1c(-c2ccc(Cl)cc2)nc2ccc(Cl)cn12 | inconclusive: 28.2 µM [inhibitor, single point]
22 | C=CCC(COCc1ccccc1)NS(=O)(=O)c1ccccc1Br (stereo unspecified) | inconclusive: 15.8 µM [activator, single point]
23 | Cc1ccc(C2C3CSCC=C3C(C#N)=C(N)C2(C#N)C#N)cc1 (stereo unspecified) | inconclusive: 3.16 µM [inhibitor, single point]
24 | Cc1cc(NC(=O)C2CC(=O)OC2c2ccccc2)no1 (stereo unspecified) | inconclusive: 22.4 µM [inhibitor, single point]

Row | SMILES | Potency
25 | COc1ccc(-c2c(C)nn3c(N4CCCCCC4)cc(C)nc23)cc1OC | inconclusive: 14.1 µM [inhibitor, single point]
26 | CCc1nc(C)cn1S(=O)(=O)c1ccc(Cl)c(Cl)c1Cl | inconclusive: 3.16 µM [activator, partial curve]
27 | O=C(Cc1cccs1)Nc1nc(-c2ccccc2)cs1 | inconclusive: 1.58 µM [activator, partial curve, poor fit]
28 | COc1cc(NC(=O)CSc2nc3ccccc3n2-c2ccccc2)c(C)cc1[N+](=O)[O-] | inconclusive: 0.631 µM [activator, single point]
29 | CCCCNC(=S)Nc1cc([N+](=O)[O-])ccc1C | active: 11.2 µM
30 | COc1cc(C2C(C#N)=C(N)Oc3c2ccc2ccccc32)ccc1OCC(=O)Nc1cccc(C)c1 (stereo unspecified) | inconclusive: 35.5 µM [inhibitor, single point]
31 | Cc1ccc2c(Cl)c(C(=O)NCC3CCCO3)sc2c1 (stereo unspecified) | inactive
32 | COc1cccc(-c2noc(CCC(=O)NCCc3ccccc3)n2)c1 | inconclusive: 3.55 µM [inhibitor, partial curve, poor fit]
33 | CCSc1nc2ccc(N3C(=O)C4C5C=CC(C5)C4C3=O)cc2s1 (stereo unspecified) | inconclusive: 35.5 µM [activator, single point]
34 | FC(F)Sc1ccc(NC(=S)NC(c2ccccc2)c2ccccc2)cc1 | active: 7.08 µM
35 | Cc1ccc(N(C(=O)CNC(=O)c2ccco2)C(C(=O)NC2CCCC2)c2ccncc2)cc1 (stereo unspecified) | inactive
36 | CCc1nnc(NC(=O)C=C(C)C)s1 | inconclusive: 10 µM [inhibitor, partial curve, poor fit]
37 | CCN(CC)S(=O)(=O)c1ccc2c(c1)[nH]c(=S)n2CC | active: 6.31 µM
38 | CC(C)(C)NC(=O)NC(=O)COC(=O)Cc1c(F)cccc1Cl | inconclusive: 10 µM [activator, partial curve]
39 | Cc1cc(=O)[nH]c(SCC(=O)C23CC4CC(CC(C4)C2)C3)c1C#N | inconclusive: 31.6 µM [inhibitor, single point]
40 | COc1ccc(NC(=O)N2CCC3(CC2)CCN(C(=O)c2csnn2)CC3)cc1 | inactive
41 | O=C(N/N=C/C=C/c1ccco1)c1ccccc1Cl | inconclusive: 22.4 µM [inhibitor, single point]
42 | O=C(NCCc1csc(-c2ccc(C(F)(F)F)cc2)n1)c1cccs1 | inconclusive: 12.6 µM [activator, partial curve]
43 | N#CC1=C(S)N(c2ccc(F)cc2)C(c2cccs2)NC1=O (stereo unspecified) | inconclusive: 35.5 µM [inhibitor, single point]
44 | CCN(CC)CCCNC(=O)CCC(=O)NNc1nc2ccccc2c2nc(C)nn12 | active: 17.8 µM
45 | CCCCOC(=O)CN1C(=O)c2ccc(C(=O)OCCCC)cc2C1=O | inconclusive: 35.5 µM [activator, partial curve, poor fit]
46 | CCOC(=O)CSC1=NC(=O)CS1 | inconclusive: 11.2 µM [inhibitor, partial curve, poor fit]
47 | COc1ccc(-c2csc(NC(=O)c3cccc(S(=O)(=O)N4CCN(C)CC4)c3)n2)cc1 | inconclusive: 5.01 µM [activator, partial curve]
48 | CCOC(=O)C1=C(O)C(=O)NC(c2ccccc2)=C(OC2CCCCC2)C1 | inactive

Reformatted tab-delimited: entries from further up.
Row	SMILES	Potency
38	CC(C)(C)NC(=O)NC(=O)COC(=O)Cc1c(F)cccc1Cl	inconclusive: 10 µM [activator, partial curve]
39	Cc1cc(=O)[nH]c(SCC(=O)C23CC4CC(CC(C4)C2)C3)c1C#N	inconclusive: 31.6 µM [inhibitor, single point]
40	COc1ccc(NC(=O)N2CCC3(CC2)CCN(C(=O)c2csnn2)CC3)cc1	inactive
41	O=C(N/N=C/C=C/c1ccco1)c1ccccc1Cl	inconclusive: 22.4 µM [inhibitor, single point]
42	O=C(NCCc1csc(-c2ccc(C(F)(F)F)cc2)n1)c1cccs1	inconclusive: 12.6 µM [activator, partial curve]

(further entries)

Row | SMILES | Potency
49 | Cc1[nH]n(-c2ccccc2)c(=O)c1N=Nc1ccccc1C(=O)N1CCOCC1 | inconclusive: 25.1 µM [inhibitor, single point]
50 | Cc1cc(C)n2c(SCc3ccccc3Cl)nnc2n1 | inactive
51 | Cc1ccc2nsnc2c1NC(=O)c1ccc(-c2cc(Cl)ccc2Cl)o1 | inconclusive: 2 µM [inhibitor, partial curve, poor fit]
52 | COc1ccc(NC(=O)c2cc(-c3ccccc3Cl)on2)cc1 | inconclusive: 0.199 µM [inhibitor, full curve, poor fit]
53 | O=C(NCCc1c[nH]c2ccccc12)c1cnc2n(c1=O)CCS2 | inconclusive: 10 µM [activator, single point]
54 | COc1ccc2c(c1)O[C@H](c1ccc3c(c1)OCO3)[C@@H](OC(=O)Nc1ccc(C)c(Br)c1)C2=O | inconclusive: 2.82 µM [inhibitor, single point]
55 | CN1CCN(/N=C/c2c3ccccc3c(Cl)c3ccccc23)CC1 | inconclusive: 10 µM [inhibitor, single point]
56 | Cc1cc(C)c(S(=O)(=O)N2CCCOC2CNC(=O)C(=O)NCCc2c[nH]c3ccccc23)c(C)c1 (stereo unspecified) | inconclusive: 35.5 µM [activator, single point]
57 | C/C(CC(=O)Nc1ccc(F)cc1F)=N\NC(=O)C(=O)N1CCCCC1 | inconclusive: 8.91 µM [activator, partial curve, poor fit]
58 | Cc1ccc(C(=O)N/N=C\c2cc3c(cc2Br)OCO3)s1 | inactive
59 | O=C1NC(Nc2nccs2)(C(F)(F)F)C(=O)N1CCc1ccccc1 (stereo unspecified) | active: 12.6 µM
60 | Cc1ccc(NC(=O)CNc2ccc(OC(C)C)cc2)c(C)c1 | inactive
61 | COc1ccc(N2CCN(C(=O)CN(c3ccccc3)S(=O)(=O)c3ccc(OC)cc3)CC2)cc1 | inconclusive: 35.5 µM [activator, single point]
62 | O=C(NCc1ccc(F)cc1)c1cc(-c2ccncc2)nc2ccccc12 | inactive
63 | O=C(COC(=O)C1CC1)Nc1ccc(OC(F)F)cc1 | inconclusive: 12.6 µM [activator, partial curve]
64 | COc1cc(CCC(=O)Nc2cnc3ccccc3c2)cc(OC)c1OC | inactive
65 | CCNC(=S)Nc1ccc(C)c(Cl)c1 | active: 7.08 µM
66 | Cc1cc(C)n(-c2nc3c(c(=O)[nH]c(=O)n3C)n2CC(O)COc2ccc(Cl)cc2Cl)n1 (stereo unspecified) | inconclusive: 2 µM [activator, full curve, poor fit]
67 | Cn1c(=O)c2c(nc(CN3CCN(C(=O)c4ccco4)CC3)n2Cc2ccc(Cl)cc2)n(C)c1=O | inconclusive: 20 µM [activator, single point]
68 | O=C(NC(=S)N(Cc1ccccc1)Cc1ccccc1)c1ccccc1F | active: 0.251 µM
69 | CC(C)C(=O)NC(=S)Nc1ccccc1N1CCN(C(=O)c2ccc(Cl)cc2)CC1 | active: 5.62 µM
70 | O=C(Nc1ccc(-c2cnco2)cc1)c1ccccc1 | inactive
71 | CNC(=S)Nc1ccc(C)c(NC(=S)NC)c1 | inconclusive: 12.6 µM [inhibitor, partial curve]
